According to the supplement of paper PMC6411743:
± gives the standard deviation of the averaged measurements. This is a selection; strong and weak results do not stand in their true shares.

What was measured:
Experiment in all cases: NP40-soluble protein abundance relative to vehicle (solubility fold change) (ratio); higher = more soluble protein in presence of ATP
ACAP2 = target: T1, ACAP2 (UniProt Q15057)
T1 sequence (whole entry): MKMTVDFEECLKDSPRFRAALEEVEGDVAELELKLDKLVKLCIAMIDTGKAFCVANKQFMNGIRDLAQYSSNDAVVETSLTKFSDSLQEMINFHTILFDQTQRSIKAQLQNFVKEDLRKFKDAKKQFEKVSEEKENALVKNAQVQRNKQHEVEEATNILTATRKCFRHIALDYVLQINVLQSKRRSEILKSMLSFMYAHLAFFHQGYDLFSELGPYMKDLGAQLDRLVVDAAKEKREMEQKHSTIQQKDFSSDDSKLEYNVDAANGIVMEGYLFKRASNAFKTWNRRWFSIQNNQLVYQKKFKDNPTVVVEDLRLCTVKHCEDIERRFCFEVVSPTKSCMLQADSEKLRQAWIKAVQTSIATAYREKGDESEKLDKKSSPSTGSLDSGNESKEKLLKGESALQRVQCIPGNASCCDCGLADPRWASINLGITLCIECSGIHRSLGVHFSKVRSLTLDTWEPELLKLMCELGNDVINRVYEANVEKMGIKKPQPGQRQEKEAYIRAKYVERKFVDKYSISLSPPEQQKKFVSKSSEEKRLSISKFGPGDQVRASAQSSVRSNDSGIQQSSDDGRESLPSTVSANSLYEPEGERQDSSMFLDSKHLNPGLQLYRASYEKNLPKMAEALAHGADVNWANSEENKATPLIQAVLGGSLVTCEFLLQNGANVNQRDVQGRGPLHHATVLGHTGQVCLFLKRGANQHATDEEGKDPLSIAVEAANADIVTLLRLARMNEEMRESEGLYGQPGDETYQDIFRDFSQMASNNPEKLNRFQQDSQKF
How it was run: (§1)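 Data come from three independent experiments in which Dounce-homogenised Jurkat crude lysate was treated at eight concentrations from 0.1 to 10 mM. Treatment ran 10 min at room temperature and then 3 min at 37 °C, after which 0.8% NP40 and benzonase were added for 60 min at 4 °C before ultracentrifugation. The supernatant underwent TMT labelling and LC-MS/MS, and vsn-normalised intensities were expressed as fold change against the detergent-processed vehicle in each replicate.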

CWF19L2 = target: T2, CWF19L2 (UniProt Q2TBE0)
T2 sequence (whole entry): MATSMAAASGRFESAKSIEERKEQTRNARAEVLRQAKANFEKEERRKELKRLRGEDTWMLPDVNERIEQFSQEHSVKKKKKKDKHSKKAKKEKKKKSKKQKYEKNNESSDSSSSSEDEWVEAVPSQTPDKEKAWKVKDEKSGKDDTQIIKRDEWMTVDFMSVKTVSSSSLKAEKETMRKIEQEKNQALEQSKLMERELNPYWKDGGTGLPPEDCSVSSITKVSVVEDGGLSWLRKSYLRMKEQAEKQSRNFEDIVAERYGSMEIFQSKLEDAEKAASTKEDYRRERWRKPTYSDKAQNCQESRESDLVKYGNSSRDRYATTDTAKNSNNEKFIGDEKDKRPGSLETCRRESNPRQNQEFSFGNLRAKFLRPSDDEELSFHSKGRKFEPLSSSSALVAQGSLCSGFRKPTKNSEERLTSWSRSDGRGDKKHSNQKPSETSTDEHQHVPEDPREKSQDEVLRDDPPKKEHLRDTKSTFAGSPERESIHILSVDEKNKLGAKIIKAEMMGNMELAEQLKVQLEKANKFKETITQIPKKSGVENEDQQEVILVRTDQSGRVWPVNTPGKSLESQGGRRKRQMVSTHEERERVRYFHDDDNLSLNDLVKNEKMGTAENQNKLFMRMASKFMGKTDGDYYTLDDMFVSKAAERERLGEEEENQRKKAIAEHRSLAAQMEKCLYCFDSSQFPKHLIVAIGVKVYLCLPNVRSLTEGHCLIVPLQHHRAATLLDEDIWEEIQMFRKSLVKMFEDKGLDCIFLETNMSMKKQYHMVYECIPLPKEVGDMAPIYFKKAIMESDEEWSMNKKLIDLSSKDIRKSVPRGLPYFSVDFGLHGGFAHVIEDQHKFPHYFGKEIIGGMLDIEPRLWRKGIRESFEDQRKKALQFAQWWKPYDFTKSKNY
How it was run: as §1

FAM53B = target: T3, FAM53B (UniProt Q14153)
T3 sequence (whole entry): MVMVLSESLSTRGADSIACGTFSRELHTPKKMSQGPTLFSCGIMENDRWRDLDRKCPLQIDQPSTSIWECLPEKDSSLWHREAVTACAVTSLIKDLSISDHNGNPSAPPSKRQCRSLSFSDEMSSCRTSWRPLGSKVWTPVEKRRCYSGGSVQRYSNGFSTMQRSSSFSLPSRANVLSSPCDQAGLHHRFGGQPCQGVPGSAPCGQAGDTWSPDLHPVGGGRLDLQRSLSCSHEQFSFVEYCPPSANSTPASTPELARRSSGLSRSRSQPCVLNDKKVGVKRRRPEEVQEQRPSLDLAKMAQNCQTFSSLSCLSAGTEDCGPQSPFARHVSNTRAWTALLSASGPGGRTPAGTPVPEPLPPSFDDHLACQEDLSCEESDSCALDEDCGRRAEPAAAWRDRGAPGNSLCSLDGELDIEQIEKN
How it was run: as §1

GALE = target: T4, GALE (UniProt Q14376)
T4 sequence (whole entry): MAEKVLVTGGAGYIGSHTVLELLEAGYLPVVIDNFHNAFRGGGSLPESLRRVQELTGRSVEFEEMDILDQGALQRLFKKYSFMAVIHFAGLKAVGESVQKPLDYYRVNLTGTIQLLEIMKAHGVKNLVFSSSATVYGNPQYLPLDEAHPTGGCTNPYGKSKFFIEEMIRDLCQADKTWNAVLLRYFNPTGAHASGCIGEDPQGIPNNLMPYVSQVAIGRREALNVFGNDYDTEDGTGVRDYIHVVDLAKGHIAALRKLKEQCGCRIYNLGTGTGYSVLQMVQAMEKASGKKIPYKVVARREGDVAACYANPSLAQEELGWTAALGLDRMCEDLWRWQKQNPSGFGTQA
How it was run: as §1

`Nc1ncnc2c1ncn2[C@@H]1O[C@H](COP(=O)(O)OP(=O)(O)OP(=O)(O)O)[C@@H](O)[C@H]1O` [adenosine triphosphate] was tested, and the NP40-soluble protein abundance (ACAP2; concentration: 1mM) was 0.959 ± 0.037, the NP40-soluble protein abundance (ACAP2; concentration: 2mM) was 0.957 ± 0.038 and the NP40-soluble protein abundance (ACAP2; concentration: 4mM) was 0.953 ± 0.025. It also gave an NP40-soluble protein abundance (ACAP2; concentration: 6mM) of 0.947 ± 0.03, an NP40-soluble protein abundance (ACAP2; concentration: 8mM) of 0.949 ± 0.026 and an NP40-soluble protein abundance (ACAP2; concentration: 10mM) of 0.949 ± 0.024. For the same molecule, the NP40-soluble protein abundance (CWF19L2; concentration: 1mM) was 1.03 ± 0.051, the NP40-soluble protein abundance (CWF19L2; concentration: 2mM) was 1.03 ± 0.036 and the NP40-soluble protein abundance (CWF19L2; concentration: 4mM) was 1.07 ± 0.062. For the same molecule, the NP40-soluble protein abundance (CWF19L2; concentration: 6mM) was 1.11 ± 0.079, the NP40-soluble protein abundance (CWF19L2; concentration: 8mM) was 1.09 ± 0.032 and the NP40-soluble protein abundance (CWF19L2; concentration: 10mM) was 1.15 ± 0.019. For the same molecule, the NP40-soluble protein abundance (FAM53B; concentration: 1mM) was 1 ± 0.17, the NP40-soluble protein abundance (FAM53B; concentration: 2mM) was 1.07 ± 0.24 and the NP40-soluble protein abundance (FAM53B; concentration: 4mM) was 1.06 ± 0.15. For the same molecule, the NP40-soluble protein abundance (FAM53B; concentration: 6mM) was 1.01 ± 0.23, the NP40-soluble protein abundance (FAM53B; concentration: 8mM) was 0.984 ± 0.15 and the NP40-soluble protein abundance (FAM53B; concentration: 10mM) was 0.992 ± 0.16. For the same molecule, the NP40-soluble protein abundance (GALE; concentration: 1mM) was 0.973 ± 0.056, the NP40-soluble protein abundance (GALE; concentration: 2mM) was 0.984 ± 0.06 and the NP40-soluble protein abundance (GALE; concentration: 4mM) was 0.979 ± 0.034. It also gave an NP40-soluble protein abundance (GALE; concentration: 6mM) of 0.927 ± 0.081, an NP40-soluble protein abundance (GALE; concentration: 8mM) of 0.971 ± 0.044 and an NP40-soluble protein abundance (GALE; concentration: 10mM) of 0.966 ± 0.043.
